This test concerns the target Rho-kinase (ROCK), endogenous in Swiss 3T3 mouse fibroblasts (mouse). In words: cell-based or functional assay.

RQIKIWFQNRRMKWKKGLENIPEKWTPEVKHFCPNVPIILVGNKK [P1-RhoA 92-119 fusion domain (Penetratin-1 fused through a glycine to human RhoA amino acids 92-119)]: the “dose at which inhibition of LPA-induced stress fibers becomes significant” value came to 10 µM.
